Assay [1] deals with HCT116 (ATCC CCL-247) human colon cancer cell line. The experiment in a line: MTT cytotoxic assay against HCT116 (96 h). The format is cell-based. Particulars: HCT-116, read-out: IC50 (ng/mL) HCT116. As for the experimental part:
(§1) The Compounds A1-A5 were assayed against three cell lines: murine leukemia, P388; human breast cancer, MCF7 (ATCC HTB-22); and human colon cancer, HCT116 (ATCC CCL-247).
(§2) Human breast cancer, MCF7 (ATCC HTB-22) and human colon cancer, HCT116 (ATCC CCL-247) cell lines were all maintained in RPMI 1640 (Sigma), supplemented with 10% Foetal Bovine Serum (FBS, PAA Laboratories). Cells of 80-85% confluence were harvested and plated onto 96-flat bottom well plates for experimental use. In all experiments, cells were incubated in a CO2 incubator at 37° C. with 5% CO2 overnight prior to treatment.
(§3) Compounds were tested against MCF7 and HCT116 and incubated for 96 h before cytotoxic assay using the MTT (3-(4,5-dimethylthiazole-2-yl)-2,5-diphenyltetrazolium bromide) assay according to Mosmann (J. Immunol Meth. 65 (1983) 55-63). Plates were read using an Elisa plate reader at 520 nm. Data generated was used to plot a dose response curve. Cytotoxic activity was expressed as the mean concentration of extract required to kill 50% of the cell population (IC50).

The test system of assay [2] is MCF7 (ATCC HTB-22) human breast cancer cell line. The experiment in a line: MTT cytotoxic assay against MCF7 (96 h). The format is cell-based. Particulars: read-out: IC50 (ng/mL) MCF7. Here is the method: as §1, §2, §3
(In general: Tetrazolium assays rely on reduction of a dye to a coloured formazan, in cell work by metabolically active cells.)

For 1 compound, IC50 results are on record in patent US20110201642A1, “Bioactive Compounds” (priority 2008, published 2011).

Converted amounts (≈) assume the structure as drawn.

Consider `CC/C(=C(\c1ccccc1)c1ccc(OCCN(C)C)cc1)c1ccccc1` [tamoxifen, reference compound], for which the IC50 in assay [1] stood at 3950 ng/mL (≈ 10.6 µM); in assay [2], 3860 ng/mL (≈ 10.4 µM).
